Values joined by “and” are separate entries in the source; they are usually repeats but may differ in a detail not shown here. Equal values may be shown once. Where a name gives a salt, the structure may show the parent alone.
System: Lambda Light Chain
Test: Automated protein assay with pyrogallol red salts, 54 μM (Example 5)
Details: 10 minutes, 37° C, replicates #1 and #2; for 600 nm Absorbance Level, salt with Protein / 900 nm Absorbance Background Level, salt with Protein: Lambda Light Chain 25 mg/dL; for 600 nm Absorbance Level, salt in Phosphate Buffered Saline (No Protein) / 900 nm Absorbance Background Level, salt in Phosphate Buffered Saline (No Protein): Lambda Light Chain row
Procedure: The dilutor was programmed for reactions of 180 μL reagent+40 μL sample. […] The samples were phosphate buffered saline (blank), human serum albumin (HSA) 25 mg/dL, and other proteins (i.e., human IgG, […], and Lambda Light Chain) at 25 mg/dL. Absorbance rate data were collected on a Biotek, Powerwave X Microplate Absorbance reader using BioTek “KC Jr” software to determine the relative detection of the different proteins (i.e., HSA, human IgG, […], and Lambda Light Chain) using salts of pyrogallol red. Two sets of replicates of the different proteins were run. […] The protein response was determined by subtracting the phosphate buffered saline sample reaction result from the protein reaction result.

Row | SMILES | 600 nm Absorbance Level, salt with Protein | 900 nm Absorbance Background Level, salt with Protein | 600 nm Absorbance Level, salt in Phosphate Buffered Saline (No Protein) | 900 nm Absorbance Background Level, salt in Phosphate Buffered Saline (No Protein)
1 | O=c1ccc2c(-c3ccccc3S(=O)(=O)O)c3ccc(O)c(O)c3oc-2c1O [Trioctylamine Pyrogallol Red Salt, pyrogallol red] | 0.446 and 0.44 | 0.086 and 0.087 | 0.485 | 0.081 and 0.08
2 | O=c1ccc2c(-c3ccccc3S(=O)(=O)O)c3ccc(O)c(O)c3oc-2c1O [Sodium Pyrogallol Red Salt, pyrogallol red, reference compound] | 0.204 and 0.201 | 0.035 and 0.036 | 0.198 and 0.196 | 0.034 and 0.035
